Test results as given in ChEMBL document CHEMBL2163335, “Structure-functional selectivity relationship studies of β-arrestin-biased dopamine D₂ receptor agonists” (J Med Chem, 2012).

Protein sequences, listed by entry. Tags and fused reporters are not part of them.
UniProt P14416, whole entry: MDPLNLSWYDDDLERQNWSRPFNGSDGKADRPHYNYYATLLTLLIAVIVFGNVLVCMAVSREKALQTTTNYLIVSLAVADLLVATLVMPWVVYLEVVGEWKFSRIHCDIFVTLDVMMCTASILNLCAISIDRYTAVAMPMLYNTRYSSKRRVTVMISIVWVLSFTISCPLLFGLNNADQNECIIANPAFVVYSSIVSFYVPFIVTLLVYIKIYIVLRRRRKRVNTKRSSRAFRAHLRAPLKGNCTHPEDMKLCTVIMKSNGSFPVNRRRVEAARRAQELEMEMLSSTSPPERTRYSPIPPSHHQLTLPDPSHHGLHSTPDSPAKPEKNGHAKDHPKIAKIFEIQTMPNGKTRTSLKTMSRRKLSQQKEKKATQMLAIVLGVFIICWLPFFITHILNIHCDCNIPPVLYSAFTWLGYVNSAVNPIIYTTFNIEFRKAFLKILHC

Target: D(2) dopamine receptor (Homo sapiens, UniProt P14416)
Assay: Agonist activity at human D2L receptor expressed in HEK293T cells coexpressing Gi subunit assessed as inhibition of isoproterenol-stimulated cAMP production by luminescence assay
Format: functional, cell-based
Conditions: hek-293t; call rule not given here

EC50: Not Active
Structure (SMILES): O=c1ccc2ccc(OCCCCN3CCCN(c4cccc(Cl)c4Cl)CC3)cc2[nH]1
